In PubChem BioAssay AID1259415 (National Center for Advancing Translational Sciences (NCATS), 2018):
Screen size: about 410,000 compounds; about 18,000 (4.4%) were called active. Inconclusive means that the source gave no clear call. Such entries were picked first, then a sample of the others. Cut-off read from the data, not from the text of the source: active = activity change below about -60%; inconclusive = no clear call, values can overlap the other calls; inactive = above about -39%.

Assay: qHTS Assay for inhibitors of the human cytomegalovirus (HCMV)
Conditions: HFF cells, HCMV-luciferase reporter, 72 h; at 57.5 µM; hits give low values
In short: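 Compounds were evaluated in HFFs infected with an HCMV luciferase reporter virus (MOI 1 PFU/cell). Luciferase in lysates collected 72 h post infection served as the replication measure.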
% is set by controls: 0 for no effect and ±100 for the full control effect.

| Compound | activity change, negative = inhibition |
| --- | --- |
| COc1cc(S(=O)(=O)Nc2cccc3cn[nH]c23)c(OC)cc1Cl | inconclusive: -40.8% |
| Cc1ccc(-c2cc3nccc(-c4cc([N+](=O)[O-])ccc4O)n3n2)cc1 | active: -62.9% |
| CCc1ccccc1NC(=O)C1CCCN(c2ncccn2)C1 (stereo not drawn) | inconclusive: -41.5% |
| COc1cc2c(cc1OC)C(C(=O)NCCN(C)C)C(c1cccs1)N(C)C2=O (stereo not drawn) | inconclusive: -45.2% |
| COc1ccc(N2CCN(C(=O)c3cccnc3)CC2)c([N+](=O)[O-])c1 | inactive: -39.5% |
| O=C(Nc1cccc2ccccc12)c1ccc([N+](=O)[O-])s1 | active: -98% |
| CCOC(=O)CCCCN(Cc1ccccc1F)S(=O)(=O)c1ccc(F)c(C(=O)Nc2cc(Cl)cc(Cl)c2)c1 | inactive: 19% |
| COCCCNC(=O)C[C@H]1C[C@H](C(=O)N(C(C)C)C(C)C)[C@@]2(C)c3[nH]c4cc(CCC(=O)N(C)C)ccc4c3CCN2C1=O | inactive: -7.24% |
| Cc1ccc(-c2cc(NC=O)c3ncc(-c4cnn(C)c4)n3c2)cc1 | inactive: -17.6% |
| Cc1ccc(C)c(NC(=O)C2CCCN2S(=O)(=O)c2ccc3c(c2)n(C)c(=O)c(=O)n3C)c1 (stereo not drawn) | inconclusive: -48.1% |
| Cc1ccc(C(C(=O)NC2CCCC2)N(C(=O)Cc2cccs2)c2ccc(C)c(C)c2)o1 (stereo not drawn) | inactive: -40% |
| O=C(COc1ccc(Cl)cc1)NCCS(=O)(=O)N1CCN(c2ccc(F)cc2)CC1 | inconclusive: -45.9% |
| Cc1ccc(C)c(N(C(=O)c2ccco2)C(C(=O)NC2CCCC2)c2ccco2)c1 (stereo not drawn) | inconclusive: -46.7% |
| Cc1cc(C(=O)C(C)OC(=O)c2ccc(NC(=O)CC#N)cc2)c(C)n1-c1ccccc1 (stereo not drawn) | active: -63.1% |
| Cc1ccc2nc(-c3ccc(NC(=O)COc4ccccc4C(C)(C)C)cc3)sc2c1 | inactive: 115% |
| C[C@@H]1O[C@@H](OC[C@H]2O[C@@H](Oc3c(-c4ccc(O)c(O)c4)oc4cc(O)cc(O)c4c3=O)[C@H](O)[C@@H](O)[C@@H]2O)[C@H](O)[C@H](O)[C@H]1O | inconclusive: -51.5% |
| CCCN(CC(=O)Nc1ccccc1C)C(=O)c1ccc(C(=O)c2ccccc2)cc1 | inconclusive: -46.5% |
| COc1cccc(OC)c1C1=CC(=O)C[C@H](c2ccc3c(c2)OCO3)C1 | inactive: -16.8% |
| O=C(Oc1cccc(OC(=O)c2ccco2)c1)c1ccco1 | inactive: 0.936% |
| Cc1cc(C)c(C(=O)/C=C/c2cccc3ccccc23)c(=O)[nH]1 | active: -104% |
| CC(C)(C)c1cc(C(=O)N2CCN(c3ncccn3)CC2)ccn1 | inconclusive: -41.2% |
| CCCSc1nc(-c2ccccc2)cc(C(F)(F)F)c1C#N | inconclusive: -46.2% |
| Nc1ccc(-c2nc3c(Cl)cc(N)cc3[nH]2)cc1 | inconclusive: -58% |
| Cc1cc(C)c(C(=O)CSc2nnc(C)s2)c(C)c1 | active: -61.5% |
| Cc1cc(N=Cc2c(O)n(-c3ccc(C)c(C)c3)c(=O)c3ccccc23)no1 | active: -64.4% |
| COc1ccc(C(=O)COc2nc(C)cc(C)c2C#N)cc1 | active: -63.6% |
| CC(C)c1ccc(NC(=O)c2cnc3sc(N4CCCC4)nn3c2=O)cc1 | inconclusive: -48.6% |

At a glance, some entries already given:

| Compound | activity change, negative = inhibition |
| --- | --- |
| COCCCNC(=O)C[C@H]1C[C@H](C(=O)N(C(C)C)C(C)C)[C@@]2(C)c3[nH]c4cc(CCC(=O)N(C)C)ccc4c3CCN2C1=O | inactive: -7.24% |
| Cc1ccc(-c2cc(NC=O)c3ncc(-c4cnn(C)c4)n3c2)cc1 | inactive: -17.6% |
| Cc1ccc(C)c(NC(=O)C2CCCN2S(=O)(=O)c2ccc3c(c2)n(C)c(=O)c(=O)n3C)c1 (stereo not drawn) | inconclusive: -48.1% |

Additional structures:

| Compound | activity change, negative = inhibition |
| --- | --- |
| Cc1ccccc1Nc1c(C)c(C)nc2ncnn12 | inconclusive: -48.3% |
| COc1cccc(NC(=O)C2(C)CCN2C(=O)CC2CCCC2)c1 (stereo not drawn) | inactive: -16.4% |
| Cc1ccc(N2CC(C(=O)N3CCCCC3)CC2=O)cc1C (stereo not drawn) | active: -61.5% |
| Cc1ccc(C)c(Cn2c(=O)n(CCCC(=O)NCCc3ccc(Cl)cc3)c(=O)c3ccccc32)c1 | inactive: -35.5% |
| COc1ccc(/C=C/C(=O)Oc2ccc(C)c(C)c2)cc1OC | inconclusive: -52.4% |
| Cc1cc(C)c(S(=O)(=O)N2CCCOC2CNC(=O)C(=O)NCc2ccccn2)c(C)c1 (stereo not drawn) | inconclusive: -43% |
| CC(CC(=O)NCCc1ccc(F)cc1)c1ccccc1 (stereo not drawn) | inactive: 35.4% |
| CCc1nc(N)nc(N)c1-c1ccc(Cl)c([N+](=O)[O-])c1 | active: -98.6% |
| N#Cc1cncc(C#Cc2ccccc2)c1 | inconclusive: -41.9% |
| CCCn1nc(C(=O)N2CCCc3ccccc32)c2ccccc2c1=O | inconclusive: -57.8% |
| Cc1ccc(C)c(S(=O)(=O)N2CCN(C(=O)Cc3sc(C)nc3-c3ccc(F)cc3)CC2)c1 | inconclusive: -54.4% |
| O=C(NCc1ccccc1)NC1(C(=O)Nc2ccc3c(c2)OCCO3)CCCCC1 | inconclusive: -56.8% |
| CCOC(=O)N1CCN(C(=O)CS(=O)(=O)Cc2nc(-c3ccccc3C)oc2C)CC1 | inconclusive: -43% |
| CC(C)(C)c1ccc(C(=O)Nc2sc3c(c2C#N)CCC(C(C)(C)C)C3)cc1 (stereo not drawn) | inconclusive: -57.9% |
| O=C(Nc1ccc(Br)cc1)C1CCCN1S(=O)(=O)c1ccc(F)cc1 (stereo not drawn) | inconclusive: -44.9% |
| CC1CCc2c(sc3nc(CN4CCN(S(=O)(=O)c5ccccc5[N+](=O)[O-])CC4)[nH]c(=O)c23)C1 (stereo not drawn) | inconclusive: -42.2% |
| Cc1ccc(NC(=O)c2ccccn2)cc1S(=O)(=O)N1CCOCC1 | inconclusive: -41.6% |
| Cc1ccc(NC(=O)C2CCN(c3nn4cc(-c5ccc(C)cc5)nc4s3)CC2)cc1 | inconclusive: 0% |
| O=C(NC1CCN(C(=O)N2c3ccccc3Sc3ccccc32)CC1)c1ccco1 | inconclusive: -57.6% |
| Oc1ccc2ccccc2c1Br | inconclusive: -58.3% |
| Cc1cc(C)nc(NC(=NCCc2c[nH]c3ccccc23)NC(=O)Nc2ccc(Cl)cc2)n1 | inconclusive: -40.8% |
| Cc1nn(CC(=O)NC(C)C(C)C)c(C)c1S(=O)(=O)N1CCCCC1 (stereo not drawn) | inactive: -11.9% |
| O=c1[nH]n(-c2ccc(F)cc2)c2ncccc12 | inactive: -7.49% |
| CCN(CC)C(=O)c1cccc(-c2csc(C(O)c3ccccc3)n2)c1 (stereo not drawn) | inconclusive: -48.6% |
| CCN(CC)S(=O)(=O)c1ccc(NC(=O)c2ccc(Sc3nncn3C)c([N+](=O)[O-])c2)cc1 | active: -81.4% |
| N#CCC(=O)NN1Cc2ccccc2C1=N | inconclusive: -47.4% |
